Results deposited as PubChem BioAssay AID743454 (Peter MacCallum Cancer Centre, 2014).
This is one part, drawn at random, of about 18,000 deposited reagents. 450 of all reagents (2.5%) were called active. 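Single biological run; no consistent viability z cut-off exists, so the class columns, not z-scores, define the calls.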 Reagent sequences are not shown.

Purpose: 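Genes whose loss kills vorinostat-resistant colon cancer cells under vorinostat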 (primary screen)
Cell system: human HCT116-VR colon cancer cells, selected for vorinostat resistance
Reagents: siRNA pool against human genes, 40 nM siRNA pool
Duration: vorinostat for 24 h, read-out about 72 h after transfection
Conditions: vorinostat at 2.5 µM final
Measured: 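Cell viability by CellTiter-Fluor and caspase 3/7 activity by luminescence, each scaled to mock wells per plate, duplicates averaged, then robust z-scored over all plates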
Direction: viability robust z-score: higher = more viable cells than screen typical; caspase robust z-score: higher = more caspase 3/7 activity than screen typical
Active means: 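Hits are knock-downs in viability class RV1/RV2 or caspase class CA1/CA2, excluding ones that killed cells in the no-drug cell-count arm; hits then retested with single siRNAs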

ZNF554 (zinc finger protein 554) showed viability hit class no change; caspase hit class no change; viability robust z-score 2.08; caspase robust z-score 0.02; inactive.
ALDOB (aldolase, fructose-bisphosphate B) showed viability hit class no change; caspase hit class no change; viability robust z-score -0.29; caspase robust z-score -0.57; inactive.
After knock-down of CST1 (cystatin SN) the results were viability hit class no change; caspase hit class no change; viability robust z-score -1.23; caspase robust z-score 3.13; inactive.
After knock-down of NFKBIL1 (NFKB inhibitor like 1) the results were viability hit class no change; caspase hit class no change; viability robust z-score -1.66; caspase robust z-score 2.24; inactive.
Silencing of GGA2 resulted in: viability hit class no change; caspase hit class no change; viability robust z-score -0.03; caspase robust z-score 0.5; inactive.
For NGLY1 (N-glycanase 1), the entry reads viability hit class no change; caspase hit class no change; viability robust z-score 1.58; caspase robust z-score -0.64; inactive.
Against PLSCR2 (phospholipid scramblase 2), the entry reads viability hit class no change; caspase hit class no change; viability robust z-score 0.76; caspase robust z-score 0.23; inactive.
Depletion of RPS10 (ribosomal protein S10) resulted in: viability hit class RV2 (reduced viability); caspase hit class no change; viability robust z-score -4.96; caspase robust z-score -0.79; active.
After knock-down of XIRP1 (xin actin binding repeat containing 1), the screen gave viability hit class no change; caspase hit class no change; viability robust z-score -0.66; caspase robust z-score -0.6; inactive.
ACAA1 (acetyl-CoA acyltransferase 1) showed viability hit class no change; caspase hit class no change; viability robust z-score -0.1; caspase robust z-score -0.3; inactive.
With knock-down of ASB17 (ankyrin repeat and SOCS box containing 17), the screen gave viability hit class no change; caspase hit class no change; viability robust z-score 0.14; caspase robust z-score -0.4; inactive.
For PSRC1 (proline and serine rich coiled-coil 1), the values are viability hit class no change; caspase hit class no change; viability robust z-score -0.19; caspase robust z-score 0.84; inactive.
